Experimental data from publication doi:10.1101/2024.05.06.590855.
Results are given in words; binding and its absence hold for the method and conditions named. In cells and extracts the contact can be indirect. Some binding calls cover weakened binding; strength is not graded here.

Amino acid sequences for entries named in this document (tags omitted).
UniProt O09106: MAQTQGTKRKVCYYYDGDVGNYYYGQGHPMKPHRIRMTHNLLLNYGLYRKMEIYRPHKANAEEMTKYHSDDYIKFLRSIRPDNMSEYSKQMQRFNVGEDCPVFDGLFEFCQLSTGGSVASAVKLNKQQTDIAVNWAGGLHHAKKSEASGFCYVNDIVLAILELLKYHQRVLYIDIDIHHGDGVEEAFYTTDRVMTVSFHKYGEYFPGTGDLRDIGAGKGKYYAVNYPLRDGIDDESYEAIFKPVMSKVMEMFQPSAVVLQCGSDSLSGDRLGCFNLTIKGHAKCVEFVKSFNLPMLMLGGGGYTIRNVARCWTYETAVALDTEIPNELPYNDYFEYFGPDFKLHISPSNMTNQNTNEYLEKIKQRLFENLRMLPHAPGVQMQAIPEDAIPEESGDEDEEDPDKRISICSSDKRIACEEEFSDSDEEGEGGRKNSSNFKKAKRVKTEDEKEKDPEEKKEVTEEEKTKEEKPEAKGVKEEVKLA
UniProt P70288: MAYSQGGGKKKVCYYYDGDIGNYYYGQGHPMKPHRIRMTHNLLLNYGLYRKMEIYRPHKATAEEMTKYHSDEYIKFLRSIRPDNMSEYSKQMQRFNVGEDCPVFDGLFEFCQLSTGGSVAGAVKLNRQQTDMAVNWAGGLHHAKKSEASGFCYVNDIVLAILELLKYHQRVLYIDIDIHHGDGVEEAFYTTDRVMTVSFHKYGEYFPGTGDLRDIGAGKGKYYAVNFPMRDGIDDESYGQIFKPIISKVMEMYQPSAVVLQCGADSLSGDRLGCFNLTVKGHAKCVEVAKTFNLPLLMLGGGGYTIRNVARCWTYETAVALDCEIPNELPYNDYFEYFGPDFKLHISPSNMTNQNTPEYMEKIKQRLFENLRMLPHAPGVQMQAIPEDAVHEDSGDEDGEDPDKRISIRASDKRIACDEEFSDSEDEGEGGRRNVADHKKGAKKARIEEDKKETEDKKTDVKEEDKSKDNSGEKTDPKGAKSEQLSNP

Target: histone deacetylase 1 (HDAC1) (mouse (endogenous in AM-like cells from mouse bone marrow)) (UniProt O09106)
Experiment: co-IP

binding: binds
Substance: histone deacetylase 2 (HDAC2) (from UniProt P70288 1-488)
